Measured values published in the supplement of paper PMC10849652.
Some of the results follow.

Protein sequences, listed by entry. Tags and fused reporters are not part of them. Lines headed by an entry give the natural chain unless they say otherwise; changes in a name come on top.
UniProt O76041: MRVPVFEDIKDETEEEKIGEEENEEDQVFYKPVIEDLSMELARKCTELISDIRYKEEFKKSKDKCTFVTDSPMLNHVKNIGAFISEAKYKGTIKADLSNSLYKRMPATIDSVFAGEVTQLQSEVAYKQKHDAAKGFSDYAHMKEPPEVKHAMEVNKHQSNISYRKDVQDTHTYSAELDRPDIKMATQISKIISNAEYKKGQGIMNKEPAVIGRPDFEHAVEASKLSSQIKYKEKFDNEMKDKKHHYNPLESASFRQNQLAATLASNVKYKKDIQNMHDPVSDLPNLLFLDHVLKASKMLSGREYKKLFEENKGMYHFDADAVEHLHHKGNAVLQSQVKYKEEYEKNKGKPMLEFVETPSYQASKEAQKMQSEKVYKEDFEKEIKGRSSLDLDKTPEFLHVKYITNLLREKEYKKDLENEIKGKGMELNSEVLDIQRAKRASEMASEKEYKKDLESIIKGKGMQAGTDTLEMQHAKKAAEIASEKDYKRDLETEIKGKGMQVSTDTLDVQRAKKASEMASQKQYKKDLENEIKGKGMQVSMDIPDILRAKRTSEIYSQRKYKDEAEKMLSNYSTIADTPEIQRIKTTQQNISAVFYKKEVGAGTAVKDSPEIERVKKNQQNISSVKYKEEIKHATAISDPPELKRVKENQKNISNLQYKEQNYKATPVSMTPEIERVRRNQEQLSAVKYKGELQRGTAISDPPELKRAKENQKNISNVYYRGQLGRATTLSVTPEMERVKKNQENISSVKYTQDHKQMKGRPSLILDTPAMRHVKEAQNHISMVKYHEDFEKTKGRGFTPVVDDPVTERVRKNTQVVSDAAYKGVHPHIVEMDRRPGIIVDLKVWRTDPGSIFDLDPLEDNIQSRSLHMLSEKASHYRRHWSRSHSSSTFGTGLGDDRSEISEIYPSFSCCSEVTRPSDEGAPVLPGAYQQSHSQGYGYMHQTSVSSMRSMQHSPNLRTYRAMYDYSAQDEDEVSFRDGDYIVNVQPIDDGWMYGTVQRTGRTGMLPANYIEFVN
UniProt Q6N069: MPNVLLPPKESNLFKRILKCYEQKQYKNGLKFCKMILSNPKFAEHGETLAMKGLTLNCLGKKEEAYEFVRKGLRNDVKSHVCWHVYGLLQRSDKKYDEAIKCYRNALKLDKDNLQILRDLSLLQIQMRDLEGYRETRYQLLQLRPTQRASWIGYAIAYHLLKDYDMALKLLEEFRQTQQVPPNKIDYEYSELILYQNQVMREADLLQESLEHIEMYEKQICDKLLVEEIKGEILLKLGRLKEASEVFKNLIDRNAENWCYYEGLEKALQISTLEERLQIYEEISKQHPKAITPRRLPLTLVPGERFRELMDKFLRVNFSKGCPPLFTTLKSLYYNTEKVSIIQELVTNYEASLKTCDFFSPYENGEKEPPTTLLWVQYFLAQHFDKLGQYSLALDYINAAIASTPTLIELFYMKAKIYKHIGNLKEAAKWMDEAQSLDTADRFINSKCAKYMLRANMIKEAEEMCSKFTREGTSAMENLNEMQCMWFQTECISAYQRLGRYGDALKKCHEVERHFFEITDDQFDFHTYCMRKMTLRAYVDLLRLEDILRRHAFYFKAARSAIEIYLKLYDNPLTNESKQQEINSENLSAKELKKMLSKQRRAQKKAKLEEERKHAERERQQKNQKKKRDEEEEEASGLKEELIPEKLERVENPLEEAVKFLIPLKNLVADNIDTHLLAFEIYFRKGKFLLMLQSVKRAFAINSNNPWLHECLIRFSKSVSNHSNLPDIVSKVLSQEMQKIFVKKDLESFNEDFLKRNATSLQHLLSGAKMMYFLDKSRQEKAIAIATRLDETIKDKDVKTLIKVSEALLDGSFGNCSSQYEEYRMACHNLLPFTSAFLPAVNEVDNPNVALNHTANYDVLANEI
UniProt O43676, whole entry, looked up: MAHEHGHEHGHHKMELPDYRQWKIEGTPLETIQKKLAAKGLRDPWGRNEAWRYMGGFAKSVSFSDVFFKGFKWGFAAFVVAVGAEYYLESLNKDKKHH
UniProt Q6PIU2: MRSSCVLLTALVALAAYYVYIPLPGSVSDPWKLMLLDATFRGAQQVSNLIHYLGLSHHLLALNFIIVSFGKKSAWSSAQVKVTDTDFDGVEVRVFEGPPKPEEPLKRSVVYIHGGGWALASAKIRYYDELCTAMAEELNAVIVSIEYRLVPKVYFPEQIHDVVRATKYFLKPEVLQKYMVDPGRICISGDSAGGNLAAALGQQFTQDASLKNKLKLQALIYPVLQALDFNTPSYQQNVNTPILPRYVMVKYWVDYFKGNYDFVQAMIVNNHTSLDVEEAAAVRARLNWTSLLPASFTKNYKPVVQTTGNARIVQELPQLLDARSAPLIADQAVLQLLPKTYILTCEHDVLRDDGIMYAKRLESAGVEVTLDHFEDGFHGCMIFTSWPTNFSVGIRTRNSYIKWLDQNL
UniProt P51970, whole entry, looked up: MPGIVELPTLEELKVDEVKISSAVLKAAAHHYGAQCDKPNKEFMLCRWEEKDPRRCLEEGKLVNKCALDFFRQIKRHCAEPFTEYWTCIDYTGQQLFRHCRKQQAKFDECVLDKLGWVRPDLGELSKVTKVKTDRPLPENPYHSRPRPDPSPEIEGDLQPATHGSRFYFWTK
UniProt Q5TEU4: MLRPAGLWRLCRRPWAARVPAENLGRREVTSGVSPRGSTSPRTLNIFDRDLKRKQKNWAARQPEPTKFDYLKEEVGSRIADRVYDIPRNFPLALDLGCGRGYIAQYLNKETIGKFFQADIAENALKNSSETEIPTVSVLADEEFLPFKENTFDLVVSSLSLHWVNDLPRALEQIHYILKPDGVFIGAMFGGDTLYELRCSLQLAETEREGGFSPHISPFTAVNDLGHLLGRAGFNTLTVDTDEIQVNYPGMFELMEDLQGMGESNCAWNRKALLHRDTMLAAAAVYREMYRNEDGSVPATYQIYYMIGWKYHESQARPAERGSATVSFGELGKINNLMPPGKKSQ
UniProt Q96HR8: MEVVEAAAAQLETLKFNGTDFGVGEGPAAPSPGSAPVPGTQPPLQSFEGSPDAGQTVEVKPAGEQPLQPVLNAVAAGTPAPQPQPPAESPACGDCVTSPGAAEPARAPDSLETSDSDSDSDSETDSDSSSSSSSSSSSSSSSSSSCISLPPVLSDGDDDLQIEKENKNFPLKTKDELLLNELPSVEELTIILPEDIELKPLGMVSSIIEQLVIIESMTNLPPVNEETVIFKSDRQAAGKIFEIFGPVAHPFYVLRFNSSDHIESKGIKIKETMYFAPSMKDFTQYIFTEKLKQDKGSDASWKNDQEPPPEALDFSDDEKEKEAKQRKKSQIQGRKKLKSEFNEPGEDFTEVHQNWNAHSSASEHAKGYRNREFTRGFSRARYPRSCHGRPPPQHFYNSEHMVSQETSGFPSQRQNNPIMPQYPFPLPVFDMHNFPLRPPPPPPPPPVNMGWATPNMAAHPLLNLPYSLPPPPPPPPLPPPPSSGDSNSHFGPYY
UniProt Q92692, whole entry, looked up: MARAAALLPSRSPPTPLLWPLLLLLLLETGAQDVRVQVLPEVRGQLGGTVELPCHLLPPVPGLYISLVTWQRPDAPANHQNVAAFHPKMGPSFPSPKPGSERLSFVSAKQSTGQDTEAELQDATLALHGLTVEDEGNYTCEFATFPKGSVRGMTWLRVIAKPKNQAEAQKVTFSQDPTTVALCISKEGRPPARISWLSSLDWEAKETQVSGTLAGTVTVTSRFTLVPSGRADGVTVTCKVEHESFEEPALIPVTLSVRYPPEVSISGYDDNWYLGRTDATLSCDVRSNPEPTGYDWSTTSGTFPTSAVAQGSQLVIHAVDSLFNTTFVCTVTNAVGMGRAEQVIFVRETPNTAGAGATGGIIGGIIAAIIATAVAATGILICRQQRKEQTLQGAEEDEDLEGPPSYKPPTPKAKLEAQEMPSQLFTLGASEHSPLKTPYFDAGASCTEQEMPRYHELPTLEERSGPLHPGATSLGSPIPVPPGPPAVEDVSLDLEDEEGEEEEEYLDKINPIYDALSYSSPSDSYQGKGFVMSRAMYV
UniProt E9PAV3, whole entry, looked up: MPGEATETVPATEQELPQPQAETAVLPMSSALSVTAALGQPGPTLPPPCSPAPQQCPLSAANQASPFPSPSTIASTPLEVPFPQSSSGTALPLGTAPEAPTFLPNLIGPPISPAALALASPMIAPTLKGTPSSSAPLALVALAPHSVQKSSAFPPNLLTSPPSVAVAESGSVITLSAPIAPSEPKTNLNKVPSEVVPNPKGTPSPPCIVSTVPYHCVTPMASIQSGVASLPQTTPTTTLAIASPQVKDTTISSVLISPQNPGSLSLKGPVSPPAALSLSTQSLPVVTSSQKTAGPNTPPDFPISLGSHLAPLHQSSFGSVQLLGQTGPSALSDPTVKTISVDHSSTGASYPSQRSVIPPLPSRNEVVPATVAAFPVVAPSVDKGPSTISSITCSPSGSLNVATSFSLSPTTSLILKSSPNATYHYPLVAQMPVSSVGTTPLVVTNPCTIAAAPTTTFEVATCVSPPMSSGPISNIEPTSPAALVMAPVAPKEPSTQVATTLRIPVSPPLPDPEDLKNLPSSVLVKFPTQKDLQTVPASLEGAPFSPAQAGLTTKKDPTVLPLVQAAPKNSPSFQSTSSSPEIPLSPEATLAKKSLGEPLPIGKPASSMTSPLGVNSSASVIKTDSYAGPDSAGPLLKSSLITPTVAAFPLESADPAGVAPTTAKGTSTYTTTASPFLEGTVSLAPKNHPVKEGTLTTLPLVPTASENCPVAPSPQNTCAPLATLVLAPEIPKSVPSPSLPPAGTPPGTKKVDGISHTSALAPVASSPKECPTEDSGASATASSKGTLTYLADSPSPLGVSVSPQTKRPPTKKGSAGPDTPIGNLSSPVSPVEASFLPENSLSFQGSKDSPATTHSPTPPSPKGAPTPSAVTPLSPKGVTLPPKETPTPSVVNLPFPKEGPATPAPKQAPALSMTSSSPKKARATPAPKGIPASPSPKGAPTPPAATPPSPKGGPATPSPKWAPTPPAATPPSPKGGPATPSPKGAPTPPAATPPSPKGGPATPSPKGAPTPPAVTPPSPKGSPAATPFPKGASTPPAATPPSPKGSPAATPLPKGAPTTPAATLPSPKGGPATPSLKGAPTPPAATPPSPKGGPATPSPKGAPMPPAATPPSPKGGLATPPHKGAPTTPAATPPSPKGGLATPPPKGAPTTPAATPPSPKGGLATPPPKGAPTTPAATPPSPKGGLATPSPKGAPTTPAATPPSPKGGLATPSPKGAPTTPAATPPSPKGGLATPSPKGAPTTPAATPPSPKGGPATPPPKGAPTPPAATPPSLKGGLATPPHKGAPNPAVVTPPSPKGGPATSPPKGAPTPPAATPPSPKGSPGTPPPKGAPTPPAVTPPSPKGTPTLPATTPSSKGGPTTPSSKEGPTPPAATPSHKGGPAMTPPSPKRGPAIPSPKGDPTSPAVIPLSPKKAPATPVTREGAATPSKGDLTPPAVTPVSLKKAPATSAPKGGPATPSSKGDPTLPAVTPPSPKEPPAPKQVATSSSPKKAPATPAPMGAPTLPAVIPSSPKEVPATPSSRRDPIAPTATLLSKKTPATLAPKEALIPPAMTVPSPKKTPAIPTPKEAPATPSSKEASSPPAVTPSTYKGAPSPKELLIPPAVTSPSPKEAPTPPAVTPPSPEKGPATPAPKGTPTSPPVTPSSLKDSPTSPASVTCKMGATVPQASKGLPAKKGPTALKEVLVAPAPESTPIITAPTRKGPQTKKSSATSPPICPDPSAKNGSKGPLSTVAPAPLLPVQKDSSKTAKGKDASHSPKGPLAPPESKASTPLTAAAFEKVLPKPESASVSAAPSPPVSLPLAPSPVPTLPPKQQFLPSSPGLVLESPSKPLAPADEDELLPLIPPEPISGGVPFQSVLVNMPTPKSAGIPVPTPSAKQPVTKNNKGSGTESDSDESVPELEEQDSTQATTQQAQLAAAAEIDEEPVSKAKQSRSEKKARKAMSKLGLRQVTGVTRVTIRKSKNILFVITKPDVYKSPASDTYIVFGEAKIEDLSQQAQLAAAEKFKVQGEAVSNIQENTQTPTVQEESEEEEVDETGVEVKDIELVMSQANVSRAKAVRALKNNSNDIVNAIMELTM
UniProt Q8WUY8: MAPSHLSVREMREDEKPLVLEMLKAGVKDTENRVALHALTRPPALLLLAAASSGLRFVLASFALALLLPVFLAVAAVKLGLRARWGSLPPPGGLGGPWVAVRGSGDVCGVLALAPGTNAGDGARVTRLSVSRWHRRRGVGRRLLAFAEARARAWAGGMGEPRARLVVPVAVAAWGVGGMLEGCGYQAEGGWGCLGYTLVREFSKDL
UniProt Q9GZM8: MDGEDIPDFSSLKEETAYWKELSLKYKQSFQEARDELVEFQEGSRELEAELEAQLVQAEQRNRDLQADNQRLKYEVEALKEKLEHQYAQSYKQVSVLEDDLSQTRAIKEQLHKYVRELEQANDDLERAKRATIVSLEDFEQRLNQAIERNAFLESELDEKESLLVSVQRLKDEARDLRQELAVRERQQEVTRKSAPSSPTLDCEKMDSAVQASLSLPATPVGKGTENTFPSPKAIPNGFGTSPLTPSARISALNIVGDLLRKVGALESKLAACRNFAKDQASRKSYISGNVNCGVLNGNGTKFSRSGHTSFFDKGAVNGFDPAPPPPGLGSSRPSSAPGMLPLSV

What was measured:
Experiment in all cases: log2 fold change, soluble protein after heating vs DMSO (PISA); higher = thermal stabilisation; K562 cells, 10 uM, 30 min; active = over 0.2 and 3.5 SD of the protein, either way, in both replicates (recomputed)
[1] = compound: C1=CC=C(C=C1)[C@H](COC2=CC3=C(C=C2)NC(=O)N3)NC(=O)C4=CC=CN(C4=O)CC5=CC(=C(C=C5)F)F
Procedure, shortened: (§1)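 Soluble protein was quantified by TMTpro 16plex LC-MS/MS after channel sums were equalised. It was obtained as the supernatant after 21,000xg for 90 min from pooled aliquots of K562 cells (2×10^6 cells/mL, 10 μM compound, 30 min) heated for 3 min across 48°C-58°C and extracted in PBS with 0.5% NP-40 at 4°C. Thermal stability values are relative to control samples and come from duplicates. They are given as log2 fold changes.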

[2] = compound: CC1=C(SC2=C1C(=N[C@H](C3=NN=C(N32)C)CC(=O)N)C4=CC=C(C=C4)Cl)C
Procedure, shortened: as §1

[3] = compound: CC1=C2C(=CC=C1)N=C(N(C2=O)C3=CC=CC=C3C)CN4C=NC5=C(N=CN=C54)N
Procedure, shortened: as §1

[4] = compound: Cc1sc2c(c1C)C(c1ccc(Cl)cc1)=N[C@@H](CC(=O)OC(C)(C)C)c1nnc(C)n1-2
Procedure, shortened: as §1

[5] = compound: c1ccc([C@@H]2C[C@H]2NC2CCNCC2)cc1
Procedure, shortened: as §1

Measured: log2 fold change

NADK2 (UniProt Q4G0N4)
inactive: [1] 0.039 | [2] 0.016 | [3] 0.015 | [4] -0.022 | [5] 0.055

NEBL (UniProt O76041)
inactive: [1] 0.19 | [2] -0.088 | [3] 0.032 | [4] -0.022 | [5] 0.017

NAA16 (UniProt Q6N069)
inactive: [1] 0.008 | [2] 0.012 | [3] 0.002 | [4] 0.009 | [5] 0.003

NEBL isoform 2 (UniProt O76041)
inactive: [1] 0.047 | [2] -0.016 | [3] 0.062 | [4] 0.021 | [5] 0.019

NDUFB3 (UniProt O43676)
inactive: [1] 0.04 | [2] 0.014 | [3] 0.024 | [4] -0.006 | [5] 0.052

NADSYN1 (UniProt Q6IA69)
inactive: [1] 0.04 | [2] 0.005 | [3] 0.038 | [4] 0 | [5] 0.008

NAGLU (UniProt P54802)
inactive: [1] 0.074 | [2] -0.028 | [3] 0.026 | [4] -0.065 | [5] 0.017

NCEH1 isoform 2 (UniProt Q6PIU2)
inactive: [1] -0.004 | [2] 0.095 | [3] 0.054 | [4] -0.043 | [5] 0.004

NEFH (UniProt P12036)
inactive: [1] 0.246 | [2] -0.267 | [3] -0.069 | [4] 0.076 | [5] 0.071

NDUFA8 (UniProt P51970)
inactive: [1] 0 | [2] -0.011 | [3] 0 | [4] 0.003 | [5] -0.006

NCKAP1 isoform 2 (UniProt Q9Y2A7)
inactive: [1] -0.037 | [2] 0.035 | [3] 0.003 | [4] 0.007 | [5] -0.004

NCAPG2 isoform 2 (UniProt Q86XI2)
inactive: [1] -0.002 | [2] -0.104 | [3] -0.001 | [4] 0.018 | [5] -0.109

NDST1 (UniProt P52848)
inactive: [1] 0 | [2] -0.152 | [3] 0.098 | [4] -0.045 | [5] -0.036

NDUFAF5 (UniProt Q5TEU4)
inactive: [1] 0.086 | [2] 0 | [3] 0.05 | [4] -0.001 | [5] 0.002

NCDN isoform 3 (UniProt Q9UBB6)
inactive: [1] -0.077 | [2] 0.021 | [3] 0.076 | [4] -0.023 | [5] -0.014

NDUFAF7 (UniProt Q7L592)
inactive: [1] -0.008 | [2] -0.033 | [3] 0.081 | [4] -0.034 | [5] -0.036

NDUFA6 (UniProt P56556)
inactive: [1] -0.017 | [2] 0.121 | [3] 0.104 | [4] -0.067 | [5] -0.039

NA, A0A096LPI6
inactive: [1] 0.055 | [2] -0.023 | [3] -0.001 | [4] 0.017 | [5] 0.023

NAPA (UniProt P54920)
inactive: [1] -0.03 | [2] 0.016 | [3] 0.007 | [4] -0.045 | [5] -0.015

NDUFB1 (UniProt O75438)
inactive: [1] -0.004 | [2] -0.059 | [3] -0.056 | [4] -0.138 | [5] 0.055

NDUFB7 (UniProt P17568)
inactive: [1] -0.032 | [2] -0.01 | [3] -0.004 | [4] -0.015 | [5] 0.03

NDUFA4 (UniProt O00483)
inactive: [1] 0 | [2] 0.005 | [3] 0.014 | [4] -0.031 | [5] 0.046

NDUFB9 (UniProt Q9Y6M9)
inactive: [1] 0.043 | [2] 0.02 | [3] 0.063 | [4] -0.023 | [5] -0.02

NDRG3 (UniProt Q9UGV2)
inactive: [1] -0.032 | [2] -0.094 | [3] 0.027 | [4] 0.041 | [5] -0.022

NDUFA2 (UniProt O43678)
inactive: [1] 0.022 | [2] 0.111 | [3] 0.085 | [4] -0.097 | [5] -0.069

NAF1 (UniProt Q96HR8)
inactive: [1] 0.032 | [2] -0.001 | [3] -0.087 | [4] -0.011 | [5] -0.009

NAP1L1 (UniProt P55209)
inactive: [1] -0.072 | [2] 0.003 | [3] 0.17 | [4] 0.013 | [5] 0.009

NCBP2AS2 (UniProt Q69YL0)
inactive: [1] 0.02 | [2] 0.019 | [3] 0.048 | [4] -0.038 | [5] -0.003

Quoted from the results shown (two entries):
NDUFA2 (UniProt O43678)
inactive: [1] 0.022 | [2] 0.111 | [3] 0.085 | [4] -0.097 | [5] -0.069

NAF1 (UniProt Q96HR8)
inactive: [1] 0.032 | [2] -0.001 | [3] -0.087 | [4] -0.011 | [5] -0.009

Later entries.

NECTIN2 (UniProt Q92692)
inactive: [1] 0.017 | [2] 0.031 | [3] -0.019 | [4] -0.009 | [5] -0.012

NDUFAF4 (UniProt Q9P032)
inactive: [1] 0.003 | [2] 0.043 | [3] 0.037 | [4] -0.008 | [5] 0

NDUFA9 (UniProt Q16795)
inactive: [1] -0.005 | [2] 0.075 | [3] 0.078 | [4] -0.014 | [5] -0.054

NCBP1 (UniProt Q09161)
inactive: [1] -0.015 | [2] 0.028 | [3] 0.089 | [4] 0.014 | [5] -0.013

NCAPG (UniProt Q9BPX3)
inactive: [1] -0.033 | [2] 0.019 | [3] 0.101 | [4] -0.002 | [5] -0.002

NEDD4 isoform 4 (UniProt P46934)
inactive: [1] -0.006 | [2] 0.103 | [3] 0.081 | [4] 0.002 | [5] -0.007

NACA (UniProt E9PAV3)
inactive: [1] 0.012 | [2] -0.024 | [3] -0.057 | [4] 0.057 | [5] 0.071

NAT14 (UniProt Q8WUY8)
inactive: [1] -0.059 | [2] 0.055 | [3] -0.087 | [4] 0.043 | [5] -0.047

NDFIP1 (UniProt Q9BT67)
inactive: [1] 0.035 | [2] -0.162 | [3] -0.076 | [4] -0.111 | [5] 0.052

NDE1 isoform 1 (UniProt Q9NXR1)
inactive: [1] -0.003 | [2] 0.04 | [3] 0.05 | [4] 0.007 | [5] 0.038

NARS1 (UniProt O43776)
inactive: [1] -0.01 | [2] -0.035 | [3] -0.049 | [4] 0.012 | [5] 0.017

NDUFS3 (UniProt O75489)
inactive: [1] -0.008 | [2] 0.006 | [3] 0.03 | [4] -0.048 | [5] -0.025

NDEL1 isoform 2 (UniProt Q9GZM8)
inactive: [1] -0.089 | [2] 0.063 | [3] 0.01 | [4] 0.025 | [5] -0.103
